Test results: patent US20070059314A1
These are yes or no findings as the source states them, for the method shown. Some binding calls cover weakened binding; strength is not graded here.

Amino acid sequences for entries named in this document (tags omitted). A change or cut given only in a name is not applied to a line headed by its entry. Chains listed by the source or under a name are the forms on record and can include a tag or linker.
VEGF165 (P15692, form named): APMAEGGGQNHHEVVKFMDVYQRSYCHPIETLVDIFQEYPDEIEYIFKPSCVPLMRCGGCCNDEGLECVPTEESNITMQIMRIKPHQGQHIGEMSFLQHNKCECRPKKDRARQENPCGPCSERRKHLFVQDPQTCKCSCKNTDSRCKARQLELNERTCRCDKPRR

What was measured:
[1] = target: T1, human NOV protein (human) (UniProt P48745); assay: Solid-phase radioligand binding: NOV (4 µg/ml) on a 96-well plate, 1 ng/well iodized VEGF165, with or without 2 µg/ml unlabelled VEGF165 or NOV
T1 sequence: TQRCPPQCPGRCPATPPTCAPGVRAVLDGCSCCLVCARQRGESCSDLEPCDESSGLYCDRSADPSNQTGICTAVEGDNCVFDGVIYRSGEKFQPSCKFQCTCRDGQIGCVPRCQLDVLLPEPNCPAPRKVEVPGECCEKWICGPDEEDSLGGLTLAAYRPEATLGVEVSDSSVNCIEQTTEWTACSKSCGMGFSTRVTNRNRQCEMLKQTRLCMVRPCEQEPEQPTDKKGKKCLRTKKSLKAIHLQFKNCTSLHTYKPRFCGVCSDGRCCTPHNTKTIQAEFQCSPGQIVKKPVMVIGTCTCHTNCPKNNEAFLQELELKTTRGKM

[2] = target: T1, human NOV protein (human); assay: Solid-phase radioligand binding: NOV on plastic, iodized VEGF165 in solution, cpm per well
[3] = target: T1, human NOV protein (human); assay: Solid-phase radioligand binding: NOV on plastic, iodized VEGF189 in solution, cpm per well

| binding [1] | binding [2] | binding [3] | Substance |
| --- | --- | --- | --- |
| binds | binds | – | VEGF165 (from UniProt P15692 27-191) (ligand) |
| – | – | binds | VEGF189 (from UniProt P15692 27-215) (ligand) |
